In PubChem BioAssay AID1508615 (Milbrandt Lab, Department of Genetics, Washington …, 2020):
Hit rate of the full screen: of about 1,600 compounds, about 20 (1%) were called active.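 How the source made its calls: active means ratio of uncleaved NAD to its breakdown product ADP-ribose above 4, meaning the enzyme was inhibited; inactive means the rest.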 The list shows a part of the results.

Chains of the proteins cited; added tags and fusions are not shown. Lines headed by an entry give the natural chain unless they say otherwise; changes in a name come on top.
UniProt Q6SZW1: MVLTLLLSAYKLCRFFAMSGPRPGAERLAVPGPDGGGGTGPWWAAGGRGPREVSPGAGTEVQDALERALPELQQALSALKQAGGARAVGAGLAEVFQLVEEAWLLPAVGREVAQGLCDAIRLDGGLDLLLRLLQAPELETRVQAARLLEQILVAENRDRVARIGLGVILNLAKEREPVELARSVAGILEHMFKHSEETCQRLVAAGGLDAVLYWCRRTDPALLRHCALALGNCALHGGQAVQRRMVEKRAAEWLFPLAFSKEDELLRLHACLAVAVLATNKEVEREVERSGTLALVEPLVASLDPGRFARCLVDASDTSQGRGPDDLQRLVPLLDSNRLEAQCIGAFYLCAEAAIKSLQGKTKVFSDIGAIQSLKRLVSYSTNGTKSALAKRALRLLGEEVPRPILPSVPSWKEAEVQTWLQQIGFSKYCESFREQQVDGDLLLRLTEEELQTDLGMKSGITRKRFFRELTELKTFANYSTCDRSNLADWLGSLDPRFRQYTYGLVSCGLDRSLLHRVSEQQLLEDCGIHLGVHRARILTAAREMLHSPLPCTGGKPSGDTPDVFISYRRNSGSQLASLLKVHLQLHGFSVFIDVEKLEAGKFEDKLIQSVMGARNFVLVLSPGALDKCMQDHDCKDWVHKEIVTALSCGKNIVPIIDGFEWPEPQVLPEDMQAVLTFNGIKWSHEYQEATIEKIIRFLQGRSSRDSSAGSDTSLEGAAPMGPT

target: NAD(+) hydrolase SARM1 (Homo sapiens) (UniProt Q6SZW1); test: SARM1 TIR NADase inhibitors by HPLC, primary screen, cell lysate, HPLC readout (AID 1508615); conditions: HEK293T SAM-TIR lysate, at 5 µM, active compounds read high;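 further: substrate NAD at 5 µM with 60 min at 37 °C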

NAD/ADPR ratio, inactive:
Cc1cnc(SCc2ccc(Cl)cc2Cl)[nH]c1=O 3
CC(=O)C1C=CC(C)(C(=O)O)C2C=C(C)C(=O)C(C)(O)C12 (stereo not drawn) 3
ClC1=C(Cl)C(Cl)=C(Cl)C1=C/C=C/c1ccccc1 3
Nc1cc([N+](=O)[O-])ccc1Nc1ccc(O)cc1 3
COc1ccc2nc3cc(Cl)ccc3c(Nc3cc(C(C)C)c(O)cc3C)c2c1 3
Cc1[nH]ccc2c1[nH]c1cc(=O)ccc12 3
Cn1c(CO)cnc1-c1ccccc1 3
CC1(C)C2CCC(CN=C(N)CSS(=O)(=O)O)C1C2 (stereo not drawn) 3
O=C(O)c1nc2nc(Cl)c(Cl)nc2[nH]1 3
COC(=O)C1(C(=O)OC)C2C(=O)C3C(C21)C3(C(=O)OC(C)(C)C)C(=O)OC(C)(C)C (stereo not drawn) 3
NS(=O)(=O)c1ccc(Nc2ccccc2)c([N+](=O)[O-])c1 3
S=c1[nH]c2ccccc2n2cccc12 3
CCOC(=O)Cn1nc2oc(=O)c(CCN3CCN(c4ccccc4OC)CC3)c(C)c2c1C 3
NNC(=O)CNC(=O)Nc1n[nH]c(=S)s1 3
NC(=O)C1=C(N)c2ccccc2C1c1ccccc1 (stereo not drawn) 3
Nc1nc(SCc2ccccn2)c2ncn(C3OC(CO)C(O)C3O)c2n1 (stereo not drawn) 3
O=C1CSC(=S)N1/N=C/c1c[nH]c2ccc(Br)cc12 3
CCCCCOc1ccc(N2C(=O)C(C)CNC2=S)cc1 (stereo not drawn) 3
C=CCSC(CC)(CC)C(N)=O 3
CCOC(=O)N1CCc2cc(OC)c(OC)c3c2c1cc1cc(OC)c(OC)cc13 3
O=C(Nc1ccc(C2=NCCN2)cc1)c1ccc(C(=O)Nc2ccc(C3=NCCN3)cc2)c(Cl)c1 3
CCCCOC(=O)c1cccnc1 3
O=C(Nc1cccc(-c2nc3ccccc3[nH]2)c1)c1ccc(C(=O)Nc2cccc(-c3nc4ccccc4[nH]3)c2)cc1 3
CCN(CC)CCN1c2ccccc2Sc2ccc3ccccc3c21 3
Cc1cccc(N2CCN(CC(O)COc3ccc(Cl)cc3)CC2)c1 (stereo not drawn) 3
c1ccc(-c2nnc3nc(N4CCCCC4)nc(N4CCCCC4)n23)cc1 3
CCOC(=O)Cc1cc(=O)c2cc(C)ccc2[nH]1 3
CCc1noc2cc(-c3ccccc3)n(C)c(=O)c12 3
O=C(/C=C/c1ccc(Cl)s1)c1ccc(Cl)s1 3
Nc1nc(N)c(C=Nc2ccc(Br)cc2)c(Nc2ccc(Br)cc2)n1 3
COC(=O)C1(F)C(=O)NC(=O)NC1OC (stereo not drawn) 3
CCCNC(=O)c1ccccc1C(=O)NC1(C(=O)NCCC)CCCC1 3
Cc1ccc(N=Nc2c(N)nn(-c3ccccc3)c2N)cc1 3
O=C1C=CC(=O)N1c1ccc(I)cc1Cl 3
Cc1cccc(C(O)C(O)c2cccc(C)n2)n1 (stereo not drawn) 3
c1ccc2c(c1)cnc1ccccc12 3
CC[C@@]1(O)C(=O)OCc2c1cc1n(c2=O)Cc2cc3c(N)cccc3nc2-1 3
Nc1nc(N)c(N=Nc2ccc(C(=O)O)cc2)c(N)n1 3
NC1=NC(c2ccccc2)N=C(Nc2ccccc2)N1 (stereo not drawn) 3
CCOc1ccc(S(=O)(=O)c2ccc(C)cc2)c2c1no[n+]2[O-] 3
O=C(O)c1ccccc1-c1ccccc1C(=O)Nc1ccc2oc(=O)c3ccccc3c2c1 3
O=C(Nc1cccc(Cl)c1)c1cc(N=Nc2ccc([N+](=O)[O-])cc2Cl)ccc1O 3
COC1CC(C)C(OC)c2cc(O)cc(c2O)NC(=O)/C(C)=C/C=C\C(C)C(OC(N)=O)/C(C)=C\C(C)C1OC (stereo not drawn) 3
CC1CN(CCN2CC(C)N(C=O)CC2C)C(C)CN1C=O (stereo not drawn) 3
O=c1nc(Nc2cccc(Cl)c2)oc2cc(Cl)oc(=O)c12 3
Cn1c(=O)c2c(nc(Cc3ccc(N)cc3)n2C)n(C)c1=O 3
c1ccc(-c2nnc(-c3ccccn3)s2)nc1 3
Nc1n[nH]c(-c2ccccc2)n1 3
COc1ccc2nc3cc(Cl)ccc3c(C#N)c2c1 3
Cc1ccc(N=Nc2c(O)ccc3n[nH]nc23)cc1 3
Clc1nc(Oc2ccccc2)nc(-c2cn(-c3ccccc3)c3ccccc23)n1 3
N#C/C(=C\c1ccc[nH]1)C(=O)c1ccccc1 3
Cn1cnc([N+](=O)[O-])c1Sc1n[nH]c(N)n1 3
Oc1ccccc1-n1c(-c2ccccc2)ccc1-c1ccccc1 3
C=CCOc1ccnc(-c2ccccc2)n1 3
CC1CC(O)C2C3(C)CCCC2(COC3=O)C12CCC1(CCOC1=O)O2 (stereo not drawn) 3
C(=C\c1ccccn1)/c1ccccn1 3
CC(=O)OCc1cc(-c2nc3ccccc3[nH]c2=O)nn1-c1ccc(Cl)cc1 3

A draw from above in order of formula weight, falling.
NAD/ADPR ratio, inactive:
COC1CC(C)C(OC)c2cc(O)cc(c2O)NC(=O)/C(C)=C/C=C\C(C)C(OC(N)=O)/C(C)=C\C(C)C1OC (stereo not drawn) 3
ClC1=C(Cl)C(Cl)=C(Cl)C1=C/C=C/c1ccccc1 3
CC1(C)C2CCC(CN=C(N)CSS(=O)(=O)O)C1C2 (stereo not drawn) 3
